# Data source: PubChem BioAssay AID1259424 (University of Nebraska Medical Center, 2018)
# Purpose: 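Seek colon cancer survival genes behaving like KSR1, using a six-gene signature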 (primary screen)
# Cell system: human HCT116 colon cancer cells
# Reagents: siRNA pool against human genes, 50 nM
# Measurement: 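Six signature mRNAs by branched-DNA multiplex assay, scaled to two housekeeping genes and non-targeting median, log2; matched to mean KSR1 knockdown profile by Pearson correlation and euclidean distance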
# Reading the numbers: mean correlation with KSR1 profile and KSR1 correlation: higher = expression change more like KSR1 knockdown; mean distance from KSR1 profile: higher = expression change less like KSR1 knockdown
# The whole screen tested about 14,000 reagents; this is a random part of them. 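Higher correlation or smaller distance means closer resemblance to KSR1 loss; control wells, including KSR1 knockdowns, recur on many plates.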 Some reagents were tested in more than one well and are listed for each. The record does not give: the time to read-out.
target,mean correlation with KSR1 profile,mean distance from KSR1 profile,"KSR1 correlation, replicate 1","KSR1 correlation, replicate 2","KSR1 correlation, replicate 3"
ZNF614,0.178,2,0.0797,0.247,-0.0568
SLC22A3,-0.018,1.72,0.0601,-0.0878,-0.0566
IFNAR2,-0.12,1.54,-0.235,-0.0623,-0.0613
C22orf31,0.265,2.71,0.429,0.159,0.0778
SEC23IP,-0.701,1.48,-0.119,-0.593,-0.696
ERCC6L2,-0.469,1.72,-0.632,-0.309,-0.0293
AHCYL1,0.108,3.03,0.0428,0.0777,0.314
SRRT,0.134,3.73,0.284,0.00149,0.0958
GRK5,0.682,1.38,0.855,0.675,0.101
GRK5,0.663,1.27,0.659,0.441,0.814
RXFP4,0.575,2.93,0.641,0.588,0.365
NUCKS1,0.0251,1.77,0.275,-0.0816,-0.0526
AGTR2,0.493,1.65,0.595,0.402,0.465
AGTR2,-0.0132,2.17,-0.0562,-0.113,-0.0363
PDIA3,-0.48,1.95,-0.307,-0.64,-0.523
PSG7,0.935,1.08,0.964,0.923,0.844
HAO2,0.436,2.66,0.558,0.362,0.355
SSB,0.58,1.52,0.695,0.447,0.535

A portion from the list above:
target,mean correlation with KSR1 profile,mean distance from KSR1 profile,"KSR1 correlation, replicate 1","KSR1 correlation, replicate 2","KSR1 correlation, replicate 3"
RXFP4,0.575,2.93,0.641,0.588,0.365
NUCKS1,0.0251,1.77,0.275,-0.0816,-0.0526
AGTR2,0.493,1.65,0.595,0.402,0.465
AGTR2,-0.0132,2.17,-0.0562,-0.113,-0.0363
PDIA3,-0.48,1.95,-0.307,-0.64,-0.523

The results go on:
target,mean correlation with KSR1 profile,mean distance from KSR1 profile,"KSR1 correlation, replicate 1","KSR1 correlation, replicate 2","KSR1 correlation, replicate 3"
KLHL1,0.782,1.02,0.836,0.496,0.718
PYGL,-0.617,4.57,-0.638,-0.613,-0.575
ACP1,0.12,1.67,0.0785,0.233,-0.087
TBC1D5,-0.56,1.53,-0.312,-0.191,-0.557
CDC26,-0.348,2.85,-0.435,-0.244,-0.459
BFSP1,0.321,2.2,0.364,0.354,0.186
DBH,-0.772,3.19,-0.627,-0.94,-0.81
R3HDM1,-0.383,1.65,-0.515,-0.163,-0.418
TRPV2,-0.416,2.76,-0.441,-0.49,-0.252
COLQ,0.0316,1.09,-0.00212,-0.315,0.17
RPL36A,-0.136,1.77,-0.0767,-0.353,-0.0155
PCSK1,0.277,3.38,0.231,0.361,0.246
UGT1A10,0.575,1.6,0.383,0.64,0.635
PDK4,-0.147,1.95,0.607,-0.284,-0.212
TIMM17B,0.32,2.01,0.259,0.318,0.406
GAL,-0.027,2.53,-0.122,0.0757,0.248
